Measurements reported in patent publication US20220146519A1 (SEOUL NATIONAL UNIVERSITY HOSPITAL, priority 2019, published 2022).

Assay: peptide made by a vendor
Conditions: conjugation step

FITC-D-[c(RGDfK)]2
final HPLC purity: at least 95% purity
